# Test results: the supplement of paper PMC8728848
# The list shows a part of the results.
# Legend:
# Assay in all cases: glycan array binding signal (z-score within array); higher = stronger binding
# Conditions in all cases: glycan notation: IUPAC condensed, linker removed
# [1] = target: Gal(b1-4)GlcNAc(b1-6)Gal(b1-4)GlcNAc
# Summary of the method: (§1)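 Glycan array data came from 3228 arrays in the Consortium for Functional Glycomics database, and only arrays with an available protein sequence were kept. Glycan names were put into IUPAC-condensed notation, and columns mapping to the same glycan were averaged. The binding signal is a within-array Z-score, averaged across arrays of one protein sequence run at different concentrations or buffers and across linkers. A negative Z-score can be read as non-binding.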
# [2] = target: Gal(b1-4)GlcNAc(b1-6)GalNAc
# Summary of the method: as §1
# [3] = target: Gal(b1-4)GlcNAc(b1-6)[Gal(b1-3)]GalNAc
# Summary of the method: as §1
# [4] = target: Gal(b1-4)GlcNAc(b1-6)[Gal(b1-4)GlcNAc(b1-3)]GalNAc
# Summary of the method: as §1
# Gal(b1-4)GlcNAc6P = target: Gal(b1-4)GlcNAc6P
# Summary of the method: as §1
# Gal(b1-6)Gal = target: Gal(b1-6)Gal
# Summary of the method: as §1
# Gal3S(b1-3)GalNAc = target: Gal3S(b1-3)GalNAc
# Summary of the method: as §1
# Gal3S(b1-3)GlcNAc = target: Gal3S(b1-3)GlcNAc
# Summary of the method: as §1
# [5] = target: Gal3S(b1-3)[Fuc(a1-4)]GlcNAc
# Summary of the method: as §1
# Gal3S(b1-4)Glc = target: Gal3S(b1-4)Glc
# Summary of the method: as §1
# Gal3S(b1-4)Glc6S = target: Gal3S(b1-4)Glc6S
# Summary of the method: as §1
# Gal3S(b1-4)GlcNAc = target: Gal3S(b1-4)GlcNAc
# Summary of the method: as §1
# [6] = target: Gal3S(b1-4)[Fuc(a1-3)]Glc6S
# Summary of the method: as §1
# [7] = target: Gal3S(b1-4)[Fuc(a1-3)]GlcNAc
# Summary of the method: as §1
# [8] = target: Gal3S(b1-4)[Fuc(a1-3)]GlcNAc6S
# Summary of the method: as §1
# Gal3S4S(b1-4)GlcNAc = target: Gal3S4S(b1-4)GlcNAc
# Summary of the method: as §1
# Gal3S6S(b1-4)GlcNAc = target: Gal3S6S(b1-4)GlcNAc
# Summary of the method: as §1
# Gal3S6S(b1-4)GlcNAc6S = target: Gal3S6S(b1-4)GlcNAc6S
# Summary of the method: as §1
# Gal4S(b1-4)GlcNAc = target: Gal4S(b1-4)GlcNAc
# Summary of the method: as §1
# Gal4S6S(b1-4)GlcNAc = target: Gal4S6S(b1-4)GlcNAc
# Summary of the method: as §1
# Gal6P(b1-4)GlcNAc = target: Gal6P(b1-4)GlcNAc
# Summary of the method: as §1
# Gal6S(b1-3)GlcNAc = target: Gal6S(b1-3)GlcNAc
# Summary of the method: as §1
# Gal6S(b1-3)GlcNAc6S = target: Gal6S(b1-3)GlcNAc6S
# Summary of the method: as §1
# Gal6S(b1-4)Glc = target: Gal6S(b1-4)Glc
# Summary of the method: as §1
# Gal6S(b1-4)Glc6S = target: Gal6S(b1-4)Glc6S
# Summary of the method: as §1
# Gal6S(b1-4)GlcNAc = target: Gal6S(b1-4)GlcNAc
# Summary of the method: as §1
# Gal6S(b1-4)GlcNAc6S = target: Gal6S(b1-4)GlcNAc6S
# Summary of the method: as §1
# GalNAc(a1-3)Gal = target: GalNAc(a1-3)Gal
# Summary of the method: as §1
# GalNAc(a1-3)GalNAc = target: GalNAc(a1-3)GalNAc
# Summary of the method: as §1
# [9] = target: GalNAc(a1-3)GalNAc(b1-3)Gal(a1-4)Gal(b1-4)Glc
# Summary of the method: as §1
# [10] = target: GalNAc(a1-3)GalNAc(b1-3)Gal(a1-4)Gal(b1-4)GlcNAc
# Summary of the method: as §1
# GalNAc(b1-3)Gal = target: GalNAc(b1-3)Gal
# Summary of the method: as §1
# [11] = target: GalNAc(b1-3)Gal(a1-4)Gal(b1-4)GlcNAc
# Summary of the method: as §1
# [12] = target: GalNAc(b1-3)Gal(a1-4)Gal(b1-4)GlcNAc(b1-3)Gal(b1-4)Glc
# Summary of the method: as §1
# [13] = target: GalNAc(b1-3)Gal(a1-6)Gal(b1-4)Glc
# Summary of the method: as §1
# GalNAc(b1-3)GalNAc = target: GalNAc(b1-3)GalNAc
# Summary of the method: as §1
# GalNAc(b1-3)GlcNAc = target: GalNAc(b1-3)GlcNAc
# Summary of the method: as §1
# GalNAc(b1-4)Gal(b1-4)Glc = target: GalNAc(b1-4)Gal(b1-4)Glc
# Summary of the method: as §1
binder,measurement,setting,value
LlpA (Arthrobacter sp) (protein) MGSSHHHHHHSSGLVPRGSHMTLHPETALRPGAAATSPNSRYRLLYQTDGNLVLYGPDGPLWDSGTNGHGAGACIMQADGNLVLYGPNDEYVWDTETDNNPGSRLVIQDDGNAVIYRPDGSPLWATETCQPPGSADSHVLQSGSTLTPTHGIRSANGLYGLLYQTDGNLVFYGPDGPLWDSGTNGRGAGACIMQPDGNLVLYGPHDEYVWDTETDNNPGSRLVIQDDGNAVIYRPDGNPTWVTGTH,glycan array binding signal (z-score),[1],-0.058
same,glycan array binding signal (z-score),[2],0.615
same,glycan array binding signal (z-score),[3],-0.352
same,glycan array binding signal (z-score),[4],-0.482
same,glycan array binding signal (z-score),Gal(b1-4)GlcNAc6P,0.159
same,glycan array binding signal (z-score),Gal(b1-6)Gal,0.799
same,glycan array binding signal (z-score),Gal3S(b1-3)GalNAc,0.802
same,glycan array binding signal (z-score),Gal3S(b1-3)GlcNAc,0.062
same,glycan array binding signal (z-score),[5],0.465
same,glycan array binding signal (z-score),Gal3S(b1-4)Glc,0.471
same,glycan array binding signal (z-score),Gal3S(b1-4)Glc6S,-0.898
same,glycan array binding signal (z-score),Gal3S(b1-4)GlcNAc,-0.268
same,glycan array binding signal (z-score),[6],2.1
same,glycan array binding signal (z-score),[7],0.763
same,glycan array binding signal (z-score),[8],0.519
same,glycan array binding signal (z-score),Gal3S4S(b1-4)GlcNAc,-0.442
same,glycan array binding signal (z-score),Gal3S6S(b1-4)GlcNAc,1.11
same,glycan array binding signal (z-score),Gal3S6S(b1-4)GlcNAc6S,0.499
same,glycan array binding signal (z-score),Gal4S(b1-4)GlcNAc,-0.524
same,glycan array binding signal (z-score),Gal4S6S(b1-4)GlcNAc,-1.12
same,glycan array binding signal (z-score),Gal6P(b1-4)GlcNAc,-0.946
same,glycan array binding signal (z-score),Gal6S(b1-3)GlcNAc,0.643
same,glycan array binding signal (z-score),Gal6S(b1-3)GlcNAc6S,0.386
same,glycan array binding signal (z-score),Gal6S(b1-4)Glc,-0.184
same,glycan array binding signal (z-score),Gal6S(b1-4)Glc6S,-0.843
same,glycan array binding signal (z-score),Gal6S(b1-4)GlcNAc,-1.13
same,glycan array binding signal (z-score),Gal6S(b1-4)GlcNAc6S,0.734
same,glycan array binding signal (z-score),GalNAc(a1-3)Gal,0.573
same,glycan array binding signal (z-score),GalNAc(a1-3)GalNAc,0.469
same,glycan array binding signal (z-score),[9],-0.632
same,glycan array binding signal (z-score),[10],-0.155
same,glycan array binding signal (z-score),GalNAc(b1-3)Gal,0.69
same,glycan array binding signal (z-score),[11],0.987
same,glycan array binding signal (z-score),[12],1.14
same,glycan array binding signal (z-score),[13],-1.19
same,glycan array binding signal (z-score),GalNAc(b1-3)GalNAc,-0.008
same,glycan array binding signal (z-score),GalNAc(b1-3)GlcNAc,-0.836
same,glycan array binding signal (z-score),GalNAc(b1-4)Gal(b1-4)Glc,0.858

# Pulled one by one from the entries so far:
binder,measurement,setting,value
LlpA (Arthrobacter sp) (protein) MGSSHHHHHHSSGLVPRGSHMTLHPETALRPGAAATSPNSRYRLLYQTDGNLVLYGPDGPLWDSGTNGHGAGACIMQADGNLVLYGPNDEYVWDTETDNNPGSRLVIQDDGNAVIYRPDGSPLWATETCQPPGSADSHVLQSGSTLTPTHGIRSANGLYGLLYQTDGNLVFYGPDGPLWDSGTNGRGAGACIMQPDGNLVLYGPHDEYVWDTETDNNPGSRLVIQDDGNAVIYRPDGNPTWVTGTH,glycan array binding signal (z-score),GalNAc(b1-3)GalNAc,-0.008
same,glycan array binding signal (z-score),Gal4S(b1-4)GlcNAc,-0.524
